Laboratory results taken from US20160324201A1, “SWEETENER COMPOSITION FOR ALLEVIATING DIABETES, CONTAINING SLOWLY DIGESTIBLE INGREDIENT” (CJ CHEILJEDANG CORPORATION, priority 2011, published 2016).

Assay: Relative sweetness of raw materials and sweetener compositions (sugar = 1)

For `O=C(CO)[C@H](O)[C@H](O)[C@H](O)CO` [Comparative Example 3, D-psicose], which “Relative Sweetness per g of raw material” value is on record?
Its value is 0.56.

Which “Relative Sweetness per g of raw material” value does the source give for `OC[C@H]1O[C@@](CO)(O[C@H]2O[C@H](CO)[C@@H](O)[C@H](O)[C@H]2O)[C@@H](O)[C@@H]1O` [Comparative Example 1, Sugar] here?
The value was 1.

For `C=C1C[C@@]23CC[C@H]4[C@@](C)(CCC[C@@]4(C)C(=O)O[C@@H]4O[C@H](CO)[C@@H](O)[C@H](O)[C@H]4O)[C@@H]2CC[C@]1(O[C@@H]1O[C@H](CO)[C@@H](O)[C@H](O[C@@H]2O[C@H](CO)[C@@H](O)[C@H](O)[C@H]2O)[C@H]1O[C@@H]1O[C@H](CO)[C@@H](O)[C@H](O)[C@H]1O)C3` [Rebaudioside A], which “Relative Sweetness per g of raw material” value is on record?
The value was 200.

For `OC[C@@H](O)[C@@H](O)CO` [Comparative Example 2, Erythritol], which “Relative Sweetness per g of raw material” value is on record?
Its value is 0.63.
